From a compilation of properties of binary mixtures (doi:10.1063/5.0239734)
The densities may have been worked out from excess volumes.

Test: xn = mol fraction of the nth substance listed
Conditions: 298.15 K, 100 kPa

| Compound | mass density (x2 = 0) [kg/m3] | mass density (x1 = 0.1182) [kg/m3] | mass density (x1 = 0.2255) [kg/m3] | mass density (x1 = 0.3385) [kg/m3] | mass density (x1 = 0.4275) [kg/m3] | mass density (x1 = 0.5209) [kg/m3] | mass density (x1 = 0.6166) [kg/m3] | mass density (x1 = 0.7291) [kg/m3] | mass density (x1 = 0.863) [kg/m3] | mass density (x1 = 1) [kg/m3] |
| --- | --- | --- | --- | --- | --- | --- | --- | --- | --- | --- |
| CC#N + CC1COC(=O)O1 | 772.8 | – | – | – | – | – | – | – | – | – |
| CC1COC(=O)O1 (stereo not given) + CC#N | – | 858.2 | 921.1 | 985.5 | 1024.5 | 1063 | 1105 | 1141.4 | 1177.2 | 1219.3 |
